Some results were stated once for a whole list of compounds, not compound by compound.
Molecular target: T7 RNA polymerase (Escherichia phage T7, UniProt P00573)
Test: Capping efficiency of mRNA co-transcriptionally capped in vitro with T7 RNA polymerase; RNase H cleavage and 16% denaturing PAGE
Assay type: biochemical
Settings: Luciferase mRNA, capping material 4x rGTP, gDNA + RNase H

Chains of the proteins cited; added tags and fusions are not shown. Lines headed by an entry give the natural chain unless they say otherwise; changes in a name come on top.
UniProt P00573: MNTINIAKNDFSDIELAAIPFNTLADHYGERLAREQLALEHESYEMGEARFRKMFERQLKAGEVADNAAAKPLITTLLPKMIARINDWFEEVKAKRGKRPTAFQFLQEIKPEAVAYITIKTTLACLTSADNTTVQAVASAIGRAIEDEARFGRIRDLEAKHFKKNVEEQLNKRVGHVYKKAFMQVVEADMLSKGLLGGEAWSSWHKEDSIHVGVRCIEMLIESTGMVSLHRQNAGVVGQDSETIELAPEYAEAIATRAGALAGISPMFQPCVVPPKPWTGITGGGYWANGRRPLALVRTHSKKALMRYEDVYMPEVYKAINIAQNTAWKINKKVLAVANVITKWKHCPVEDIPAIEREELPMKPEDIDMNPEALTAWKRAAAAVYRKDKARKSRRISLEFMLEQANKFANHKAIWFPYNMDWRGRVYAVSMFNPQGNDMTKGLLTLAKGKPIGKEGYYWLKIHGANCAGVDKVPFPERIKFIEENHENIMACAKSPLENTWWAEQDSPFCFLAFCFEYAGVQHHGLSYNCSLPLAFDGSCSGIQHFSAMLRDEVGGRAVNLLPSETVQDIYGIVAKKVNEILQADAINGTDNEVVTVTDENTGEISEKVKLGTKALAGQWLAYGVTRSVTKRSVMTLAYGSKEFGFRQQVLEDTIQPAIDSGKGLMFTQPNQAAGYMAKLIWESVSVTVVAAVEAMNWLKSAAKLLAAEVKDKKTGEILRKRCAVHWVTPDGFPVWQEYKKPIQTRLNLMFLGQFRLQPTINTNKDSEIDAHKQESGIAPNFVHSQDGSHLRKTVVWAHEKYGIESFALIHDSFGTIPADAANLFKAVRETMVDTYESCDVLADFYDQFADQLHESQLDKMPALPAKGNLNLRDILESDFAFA

Row | Compound | capping efficiency | capping efficiency (listed as ThioCapl)
1 | CO[C@@H]1[C@H](OP(=O)(O)OC[C@H]2O[C@@H](n3cnc4c(=O)[nH]c(N)nc43)[C@H](O)[C@@H]2O)[C@@H](COP(=O)(O)OP(O)(=S)OP(=O)(O)OC[C@H]2O[C@@H](n3c[n+](Cc4ccc(Cl)cc4)c4c(=O)[nH]c(N)nc43)[C@H](O)[C@@H]2O)O[C@H]1n1cnc2c(N)ncnc21 (single isomer, unassigned) [^4-ClBn7GppspAmpG (D1), Guanosine N7-4-Cl-benzyl β-phosphorothioate trinucleotide Cap1] | ≥ 90% | –
2 | CO[C@@H]1[C@H](OP(=O)(O)OC[C@H]2O[C@@H](n3cnc4c(=O)[nH]c(N)nc43)[C@H](O)[C@@H]2O)[C@@H](COP(=O)(O)OP(=O)(S)OP(=O)(O)OC[C@H]2O[C@@H](n3c[n+](Cc4ccc(Cl)cc4)c4c([O-])nc(N)nc43)[C@H](O)[C@@H]2O)O[C@H]1n1cnc2c(N)ncnc21 (single isomer, unassigned) [^4-ClBn7GppspAmpG (D2), Guanosine N7-4-Cl-benzyl β-phosphorothioate trinucleotide Cap1] | ≥ 90% | –
3 | CO[C@@H]1[C@H](OP(=O)(O)OC[C@H]2O[C@@H](n3cnc4c(=O)[nH]c(N)nc43)[C@H](O)[C@@H]2O)[C@@H](COP(=O)(O)OP(O)(=S)OP(=O)(O)OC[C@H]2O[C@@H](n3c[n+](Cc4ccccc4)c4c(=O)[nH]c(N)nc43)[C@H](O)[C@@H]2O)O[C@H]1n1cnc2c(N)ncnc21 (single isomer, unassigned) [^Bn7GppspAmpG (D1), Guanosine N7-benzyl β-phosphorothioate trinucleotide Cap1] | ≥ 90% | –
4 | CO[C@@H]1[C@H](OP(=O)(O)OC[C@H]2O[C@@H](n3cnc4c(=O)[nH]c(N)nc43)[C@H](O)[C@@H]2O)[C@@H](COP(=O)(O)OP(=O)(O)OP(=O)(O)OC[C@H]2O[C@@H](n3c[n+](Cc4ccccc4)c4c(=O)[nH]c(N)nc43)[C@H](O)[C@@H]2O)O[C@H]1n1cnc2c(N)ncnc21 [BzCap1, Guanosine N7-benzyl trinucleotide Cap1] | ≥ 90% | –
5 | CO[C@@H]1[C@H](OP(=O)(O)OC[C@H]2O[C@@H](n3cnc4c(=O)[nH]c(N)nc43)[C@H](O)[C@@H]2O)[C@@H](COP(=O)(O)OP(=O)(O)OP(=O)(O)OC[C@H]2O[C@@H](n3c[n+](Cc4ccccn4)c4c(=O)[nH]c(N)nc43)[C@H](O)[C@@H]2O)O[C@H]1n1cnc2c(N)ncnc21 [PyCap1, Guanosine N7-(pyridin-2-ylmethyl) trinucleotide Cap1 analog] | ≥ 88% | –
6 | CO[C@@H]1[C@H](OP(=O)(O)OC[C@H]2O[C@@H](n3cnc4c(=O)[nH]c(N)nc43)[C@H](O)[C@@H]2O)[C@@H](COP(=O)(O)OP(=O)(O)OP(=O)(O)OC[C@H]2O[C@@H](n3c[n+](Cc4cccs4)c4c(=O)[nH]c(N)nc43)[C@H](O)[C@@H]2O)O[C@H]1n1cnc2c(N)ncnc21 [ThioCap1, Guanosine N7-(thiophen-2-ylmethyl) trinucleotide Cap1 analog] | ≥ 92% | ≥ 90%
7 | CO[C@@H]1[C@H](OP(=O)(O)OC[C@H]2O[C@@H](n3cnc4c(=O)[nH]c(N)nc43)[C@H](O)[C@@H]2O)[C@@H](COP(=O)(O)OP(=O)(O)OC[C@H]2O[C@@H](n3c[n+](Cc4ccc(Cl)cc4)c4c(=O)[nH]c(N)nc43)[C@H](O)[C@@H]2O)O[C@H]1n1cnc2c(N)ncnc21 [^4-ClBn7GppAmpG, Guanosine N7-4-Cl-benzyl trinucleotide diphosphate Cap1] | ≥ 90% | –
8 | CO[C@@H]1[C@H](OP(=O)(O)OC[C@H]2O[C@@H](n3cnc4c(=O)[nH]c(N)nc43)[C@H](O)[C@@H]2O)[C@@H](COP(=O)(O)OP(=O)(O)OP(=O)(O)OC[C@H]2O[C@@H](n3c[n+](Cc4ccc(Cl)cc4)c4c(=O)[nH]c(N)nc43)[C@H](O)[C@@H]2O)O[C@H]1n1cnc2c(N)ncnc21 [^4-ClBn7GpppAmpG, Guanosine N7-4-Cl-benzyl trinucleotide Cap1] | ≥ 90% | –
9 | CO[C@@H]1[C@H](OP(=O)(O)OC[C@H]2O[C@@H](n3cnc4c(=O)[nH]c(N)nc43)[C@H](O)[C@@H]2O)[C@@H](COP(=O)(O)OP(=O)(O)OC[C@H]2O[C@@H](n3c[n+](Cc4ccccc4)c4c(=O)[nH]c(N)nc43)[C@H](O)[C@@H]2O)O[C@H]1n1cnc2c(N)ncnc21 [^Bn7GppAmpG, Guanosine N7-benzyl trinucleotide diphosphate Cap1] | ≥ 90% | –
10 | CO[C@@H]1[C@H](OP(=O)(O)OC[C@H]2O[C@@H](n3cnc4c(=O)[nH]c(N)nc43)[C@H](O)[C@@H]2O)[C@@H](COP(=O)(O)OP(=O)(O)OP(=O)(O)OC[C@H]2O[C@@H](n3c[n+](Cc4ccccc4)c4c(=O)[nH]c(N)nc43)[C@H](O)[C@@H]2O)O[C@H]1n1cnc2c(NCc3ccccc3)ncnc21 [^Bn7Gppp^Bn6AmpG, Guanosine N^7, adenosine N^6-dibenzyl trinucleotide Cap1] | ≥ 90% | –
11 | CO[C@@H]1[C@H](OP(=O)(O)OC[C@H]2O[C@@H](n3cnc4c(=O)[nH]c(N)nc43)[C@H](O)[C@@H]2O)[C@@H](COP(=O)(O)OP(=O)(O)OP(=O)(O)OC[C@H]2O[C@@H](n3c[n+](Cc4ccccc4)c4c(=O)[nH]cnc43)[C@H](O)[C@@H]2O)O[C@H]1n1cnc2c(N)ncnc21 [^Bn7IpppAmpG, Inosine N7-benzyl trinucleotide Cap1] | ≥ 90% | –
12 | L-Guanosine N7-benzyl trinucleotide Cap1 [^Bn7LGpppAmpG] | ≥ 90% | –
